According to US20240182538A1:
Results are given in words; binding and its absence hold for the method and conditions named. In cells and extracts the contact can be indirect. Some entries that bind do so weakly or less than the wild type.

Sequences of proteins named here, by UniProt entry; tags and fusion partners are left off. A change or cut given only in a name is not applied to a line headed by its entry.
UniProt Q16666: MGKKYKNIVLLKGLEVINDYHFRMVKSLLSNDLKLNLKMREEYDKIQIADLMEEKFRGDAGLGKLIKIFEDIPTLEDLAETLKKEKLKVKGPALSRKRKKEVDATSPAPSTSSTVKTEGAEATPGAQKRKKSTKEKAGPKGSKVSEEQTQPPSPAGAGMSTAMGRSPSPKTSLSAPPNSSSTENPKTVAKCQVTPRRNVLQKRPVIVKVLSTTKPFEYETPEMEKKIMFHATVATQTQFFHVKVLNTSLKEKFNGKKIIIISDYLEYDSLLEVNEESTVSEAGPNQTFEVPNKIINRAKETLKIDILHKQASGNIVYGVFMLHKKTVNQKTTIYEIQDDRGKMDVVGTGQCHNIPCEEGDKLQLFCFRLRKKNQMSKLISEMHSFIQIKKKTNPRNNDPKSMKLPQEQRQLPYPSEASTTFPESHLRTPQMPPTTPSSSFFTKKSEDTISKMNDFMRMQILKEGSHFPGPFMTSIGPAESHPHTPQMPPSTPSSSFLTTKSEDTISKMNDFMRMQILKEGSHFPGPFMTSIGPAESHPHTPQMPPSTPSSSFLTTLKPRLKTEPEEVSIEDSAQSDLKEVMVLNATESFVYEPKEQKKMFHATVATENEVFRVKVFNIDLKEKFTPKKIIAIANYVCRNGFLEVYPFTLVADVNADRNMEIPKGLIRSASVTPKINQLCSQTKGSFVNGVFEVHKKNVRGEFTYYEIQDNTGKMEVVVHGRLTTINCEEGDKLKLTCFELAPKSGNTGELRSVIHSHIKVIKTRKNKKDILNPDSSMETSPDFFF

Columns and labels:
[1] = molecular target: T1, human TANK-binding kinase 1 (TBK1), endogenous in THP-1 cells and primary human MDMs (human) (UniProt Q9UHD2); assay: summary of co-IP experiments (FIG. 4)
T1 sequence: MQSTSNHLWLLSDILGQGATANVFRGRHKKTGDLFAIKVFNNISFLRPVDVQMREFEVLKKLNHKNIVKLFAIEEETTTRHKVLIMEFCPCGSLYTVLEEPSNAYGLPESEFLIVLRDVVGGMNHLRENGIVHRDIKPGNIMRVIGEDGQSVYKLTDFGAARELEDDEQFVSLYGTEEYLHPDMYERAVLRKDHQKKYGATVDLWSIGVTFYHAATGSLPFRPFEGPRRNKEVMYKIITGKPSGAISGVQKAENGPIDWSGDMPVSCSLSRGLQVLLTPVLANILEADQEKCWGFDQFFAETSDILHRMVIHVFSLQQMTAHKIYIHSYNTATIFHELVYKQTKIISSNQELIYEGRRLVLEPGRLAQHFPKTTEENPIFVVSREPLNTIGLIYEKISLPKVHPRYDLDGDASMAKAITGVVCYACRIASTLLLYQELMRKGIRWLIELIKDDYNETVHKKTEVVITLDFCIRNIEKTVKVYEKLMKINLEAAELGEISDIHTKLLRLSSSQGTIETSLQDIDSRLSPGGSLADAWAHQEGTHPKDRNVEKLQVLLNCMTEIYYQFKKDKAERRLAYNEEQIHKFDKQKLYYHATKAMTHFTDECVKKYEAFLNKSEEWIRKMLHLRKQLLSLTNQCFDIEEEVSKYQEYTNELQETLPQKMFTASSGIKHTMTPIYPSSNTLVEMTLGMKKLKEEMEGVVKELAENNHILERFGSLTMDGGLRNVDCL

[2] = molecular target: T2, phosphorylated human TBK1, endogenous in THP-1 cells (human) (UniProt Q9UHD2); assay: co-IP with anti-IFI16 from cytosolic extracts of dsDNA-stimulated THP1 cells, immunoblot (FIG. 4a, lane 5-6)
T2 sequence (chain, phosphorylated (site not printed; detected with anti-phospho-TBK1 antibody)): T1 sequence

[3] = molecular target: T1, human TANK-binding kinase 1 (TBK1), endogenous in THP-1 cells and primary human MDMs (human); assay: co-IP with anti-IFI16 from STING KO THP1 cells, immunoblot (FIG. 4d)
[4] = molecular target: T1, human TANK-binding kinase 1 (TBK1), endogenous in THP-1 cells and primary human MDMs (human); assay: co-IP with anti-IFI16 from cytosolic extracts of unstimulated THP1 cells, immunoblot (FIG. 4a, lane 4)

binding [1]: binds | binding [2]: binds | binding [3]: binds | binding [4]: binds
Substance: human IFI16 (Interferon-gamma-inducible protein 16), endogenous in THP-1 cells and primary human MDMs (from UniProt Q16666 1-785)
